# Measurements published in publication PMC8809903.
# Protein sequences, listed by entry. Tags and fused reporters are not part of them. Lines headed by an entry give the natural chain unless they say otherwise; changes in a name come on top.
# UniProt Q16651: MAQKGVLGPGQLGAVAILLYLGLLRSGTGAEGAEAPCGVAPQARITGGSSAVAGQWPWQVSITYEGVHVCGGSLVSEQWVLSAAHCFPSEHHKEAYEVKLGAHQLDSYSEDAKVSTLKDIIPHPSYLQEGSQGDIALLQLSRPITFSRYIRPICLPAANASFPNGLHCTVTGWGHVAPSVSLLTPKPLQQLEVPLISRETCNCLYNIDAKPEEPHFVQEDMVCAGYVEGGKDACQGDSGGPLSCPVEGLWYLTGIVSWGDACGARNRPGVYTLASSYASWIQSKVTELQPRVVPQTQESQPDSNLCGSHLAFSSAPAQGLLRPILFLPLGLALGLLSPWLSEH
# No constants are given. Whether binding was seen depends on the method and setting. In cells and extracts the contact can be indirect. Binding can be weak; no strength is given.
# B1: sodium channel epithelial 1alpha subunit (SCNN1A) (protein, UniProt P37088 1-669)
# chain: MEGNKLEEQDSSPPQSTPGLMKGNKREEQGLGPEPAAPQQPTAEEEALIEFHRSYRELFEFFCNNTTIHGAIRLVCSQHNRMKTAFWAVLWLCTFGMMYWQFGLLFGEYFSYPVSLNINLNSDKLVFPAVTICTLNPYRYPEIKEELEELDRITEQTLFDLYKYSSFTTLVAGSRSRRDLRGTLPHPLQRLRVPPPPHGARRARSVASSLRDNNPQVDWKDWKIGFQLCNQNKSDCFYQTYSSGVDAVREWYRFHYINILSRLPETLPSLEEDTLGNFIFACRFNQVSCNQANYSHFHHPMYGNCYTFNDKNNSNLWMSSMPGINNGLSLMLRAEQNDFIPLLSTVTGARVMVHGQDEPAFMDDGGFNLRPGVETSISMRKETLDRLGGDYGDCTKNGSDVPVENLYPSKYTQQVCIHSCFQESMIKECGCAYIFYPRPQNVEYCDYRKHSSWGYCYYKLQVDFSSDHLGCFTKCRKPCSVTSYQLSAGYSRWPSVTSQEWVFQMLSRQNNYTVNNKRNGVAKVNIFFKELNYKTNSESPSVTMVTLLSNLGSQWSLWFGSSVLSVVEMAELVFDLLVIMFLMLLRRFRSRYWSPGRGGRGAQEVASTLASSPPSHFCPHPMSLSLSQPGPAPSPALTAPPPAYATLGPRPSPGGSAGASSSTCPLGGP
# Biological target: Serine Protease 8 (PRSS8) (human (endogenous in the human ovarian cell lines used)) (UniProt Q16651)
# Test: co-IP; cell lysate with 1 ug of the corresponding antibody overnight at 4 C, protein A agarose beads 2-4 h at 4 C, western blot; immunoprecipitation of PRSS8 and of SCNN1A
binder,measurement,value
B1,binding,binds
